Measurements reported in the supplement of paper PMC4604168 (melanoma cell lines).
This is one part of the list. Repeats are few or missing, and single values can be far off.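 Imaging used 1,536-well plates; nuclei positive for cleaved PARP by antibody were divided by total DNA-stained nuclei to yield the apoptosis fraction. Doses for screening kept most cells viable, and cell lines differ markedly in resting and induced cleaved-PARP levels.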

Columns and labels:
Test in all cases: cleaved PARP positive nuclei fraction relative to DMSO control; melanoma cells; higher = more apoptosis
Conditions in all cases: library dose: low library concentration; 72 h
501Mel = system: 501Mel
A101D = system: A101D
A2058 = system: A2058
A375 = system: A375
C32 = system: C32
CBRC008 = system: CBRC008 (line from a melanoma biopsy)
CBRC014 = system: CBRC014 (line from a melanoma biopsy)
CBRC016 = system: CBRC016 (line from a melanoma biopsy)
CBRC017 = system: CBRC017 (line from a melanoma biopsy)
CBRC034 = system: CBRC034 (line from a melanoma biopsy)
COLO792 = system: COLO792
COLO800 = system: COLO800
COLO829 = system: COLO829
G361 = system: G361
IPC-298 = system: IPC-298
IST-MEL1 = system: IST-MEL1
LB2518-MEL = system: LB2518-MEL
LOXIMVI = system: LOXIMVI
MEL-HO = system: MEL-HO

| Structure (SMILES) | cleaved PARP positive nuclei fraction (501Mel) | cleaved PARP positive nuclei fraction (A101D) | cleaved PARP positive nuclei fraction (A2058) | cleaved PARP positive nuclei fraction (A375) | cleaved PARP positive nuclei fraction (C32) | cleaved PARP positive nuclei fraction (CBRC008) | cleaved PARP positive nuclei fraction (CBRC014) | cleaved PARP positive nuclei fraction (CBRC016) | cleaved PARP positive nuclei fraction (CBRC017) | cleaved PARP positive nuclei fraction (CBRC034) | cleaved PARP positive nuclei fraction (COLO792) | cleaved PARP positive nuclei fraction (COLO800) | cleaved PARP positive nuclei fraction (COLO829) | cleaved PARP positive nuclei fraction (G361) | cleaved PARP positive nuclei fraction (IPC-298) | cleaved PARP positive nuclei fraction (IST-MEL1) | cleaved PARP positive nuclei fraction (LB2518-MEL) | cleaved PARP positive nuclei fraction (LOXIMVI) | cleaved PARP positive nuclei fraction (MEL-HO) |
| --- | --- | --- | --- | --- | --- | --- | --- | --- | --- | --- | --- | --- | --- | --- | --- | --- | --- | --- | --- |
| O=C(Nc1cc(C(F)(F)F)cc(C(F)(F)F)c1)c1cc(Cl)ccc1O + CCCCCCCCc1ccc(CCC(N)(CO)CO)cc1 [fingolimod] (first compound 0.016 µM, partner dose 2 µM) | 163% | 42.9% | 161% | 122% | 175% | 23.8% | 107% | 298% | 113% | 37.1% | 41.2% | 63.5% | 185% | 67% | 88.4% | 83.2% | 99.7% | 93.3% | 63.6% |
| O=C(/C=C/c1cccnc1)NCCCCC1CCN(C(=O)c2ccccc2)CC1 + COc1ccc(Cl)c(Nc2nc3ccccc3nc2NS(=O)(=O)c2cccc(NC(=O)C(C)(C)N)c2)c1 [XL147] (first compound 0.01 µM, partner dose 0.8 µM) | 137% | 94.2% | 179% | 36.4% | 71.9% | 4270% | 118% | 705% | 436% | 1980% | 764% | 110% | 391% | 6520% | 99.2% | 100% | 712% | 147% | 87.2% |
| Cc1cc(Nc2cc(N3CCN(C)CC3)nc(Sc3ccc(NC(=O)C4CC4)cc3)n2)n[nH]1 [Tozasertib] + CN(c1ncccc1CNc1nc(Nc2ccc3c(c2)CC(=O)N3)ncc1C(F)(F)F)S(C)(=O)=O [PF562271] (first compound 0.006 µM, partner dose 0.08 µM) | 79.9% | 97.7% | 72.8% | 215% | 79.6% | 33% | 100% | 179% | 215% | 31.8% | 168% | 75.1% | 134% | 74.6% | 108% | 29.4% | 61.4% | 48.3% | 185% |
| Cc1ccc(Nc2nccc(N(C)c3ccc4c(C)n(C)nc4c3)n2)cc1S(N)(=O)=O [Pazopanib] + C[C@@H](N)c1ccc(C(=O)Nc2ccnc3[nH]ccc23)cc1 [RKI983] (first compound 0.4 µM, partner dose 0.4 µM) | 53.3% | 98.1% | 123% | 108% | 93.5% | 163% | 99.1% | 59.9% | 108% | 60.9% | 92.5% | 41.6% | 137% | 174% | 64.5% | 243% | 46.8% | 243% | 47% |
| N#CC[C@H](C1CCCC1)n1cc(-c2ncnc3[nH]ccc23)cn1 [ruxolitinib] + CS(=O)(=O)CCNCc1ccc(-c2ccc3ncnc(Nc4ccc(OCc5cccc(F)c5)c(Cl)c4)c3c2)o1 [lapatinib] (first compound 1 µM, partner dose 0.8 µM) | 126% | 115% | 102% | 48.5% | 70.8% | 164% | 83.3% | 240% | 76.3% | 67.5% | 113% | 51.1% | 107% | 90.1% | 43.3% | 61.9% | 41.5% | 52.8% | 303% |
| N#CC[C@H](C1CCCC1)n1cc(-c2ncnc3[nH]ccc23)cn1 [ruxolitinib] + CS(=O)(=O)c1ccc(C(=O)Nc2ccc(Cl)c(-c3ccccn3)c2)c(Cl)c1 [vismodegib] (first compound 1 µM, partner dose 1 µM) | 113% | 127% | 96.1% | 112% | 121% | 164% | 99.4% | 23.2% | 94.5% | 103% | 84% | 81.1% | 119% | 58.8% | 43.4% | 188% | 77.1% | 218% | 69.7% |
| N#CC[C@H](C1CCCC1)n1cc(-c2ncnc3[nH]ccc23)cn1 [ruxolitinib] + Cn1c(=O)n(-c2ccc(C(C)(C)C#N)cc2)c2c3cc(-c4cnc5ccccc5c4)ccc3ncc21 [NVP-BEZ235] (first compound 1 µM, partner dose 0.004 µM) | 66.3% | 132% | 129% | 29.3% | 80.3% | 80.5% | 84.5% | 53.7% | 150% | 49.8% | 123% | 167% | 189% | 106% | 41.8% | 140% | 101% | 211% | 80.2% |
| O=c1[nH]nc(Sc2ncc([N+](=O)[O-])s2)n1-c1ccc2c(c1)OCCO2 + Nc1cccc2c1CN(C1CCC(=O)NC1=O)C2=O [lenalidomide] (first compound 0.2 µM, partner dose 1 µM) | 83.2% | 95.3% | 76% | 114% | 76.7% | 48.7% | 105% | 150% | 124% | 63.5% | 100% | 78.5% | 132% | 86% | 120% | 60.4% | 182% | 52.6% | 23.7% |
| Cc1cn(-c2cc(NC(=O)c3ccc(C)c(Nc4nccc(-c5cccnc5)n4)c3)cc(C(F)(F)F)c2)cn1 [nilotinib] + CN(c1ncccc1CNc1nc(Nc2ccc3c(c2)CC(=O)N3)ncc1C(F)(F)F)S(C)(=O)=O [PF562271] (first compound 0.2 µM, partner dose 0.08 µM) | 86.2% | 139% | 133% | 80.2% | 82.5% | 31.2% | 130% | 89.4% | 88.2% | 76.5% | 46.6% | 166% | 56% | 86.4% | 41.4% | 130% | 123% | 43.5% | 59.6% |
| O=C(Nc1cc(C(F)(F)F)cc(C(F)(F)F)c1)c1cc(Cl)ccc1O + OCc1c[nH]c2ccccc12 [Indole-3-carbinol] (first compound 0.016 µM, partner dose 0.8 µM) | 109% | 67% | 227% | 334% | 89.2% | 134% | 78.4% | 92.3% | 110% | 70.3% | 61% | 173% | 102% | 73.9% | 94.8% | 145% | 93.7% | 105% | 50.8% |
| CC[C@]1(O)C[C@H]2CN(CCc3c([nH]c4ccccc34)[C@@](C(=O)OC)(c3cc4c(cc3OC)N(C=O)[C@H]3[C@@](O)(C(=O)OC)[C@H](OC(C)=O)[C@]5(CC)C=CCN6CC[C@]43[C@@H]65)C2)C1 [vincristine] + Cn1c(Nc2ccc(C(F)(F)F)cc2)nc2cc(Oc3ccnc(-c4ncc(C(F)(F)F)[nH]4)c3)ccc21 [CHIR265] (first compound 0.0001 µM, partner dose 0.08 µM) | 476% | 322% | 3830% | 871% | 489% | 57.7% | 147% | 148% | 140% | 126% | 126% | 156% | 137% | 143% | 281% | 142% | 208% | 181% | 314% |
| Cc1cc(Nc2cc(N3CCN(C)CC3)nc(Sc3ccc(NC(=O)C4CC4)cc3)n2)n[nH]1 [Tozasertib] + Nc1ccn([C@@H]2O[C@H](CO)[C@@H](O)C2(F)F)c(=O)n1 [gemcitabine] (first compound 0.006 µM, partner dose 0.0004 µM) | 75.9% | 92.1% | 41% | 38.3% | 71.3% | 59.3% | 97.5% | 258% | 138% | 81.7% | 146% | 240% | 127% | 175% | 47.1% | 265% | 114% | 70.1% | 126% |
| COc1cc([C@@H]2c3cc4c(cc3[C@@H](O[C@@H]3O[C@@H]5CO[C@@H](C)O[C@H]5[C@H](O)[C@H]3O)[C@H]3COC(=O)[C@H]23)OCO4)cc(OC)c1O [etoposide] + C[C@@H](Oc1cc(-c2cnn(C3CCNCC3)c2)cnc1N)c1c(Cl)ccc(F)c1Cl [Crizotinib] (first compound 0.02 µM, partner dose 0.2 µM) | 98.6% | 141% | 165% | 210% | 202% | 102% | 102% | 78.4% | 101% | 65.9% | 131% | 87.9% | 164% | 133% | 96.7% | 132% | 105% | 149% | 28% |
| Cc1cn(-c2cc(NC(=O)c3ccc(C)c(Nc4nccc(-c5cccnc5)n4)c3)cc(C(F)(F)F)c2)cn1 [nilotinib] + CCN(CC)CCNC(=O)c1c(C)[nH]c(/C=C2\C(=O)Nc3ccc(F)cc32)c1C [sunitinib] (first compound 0.2 µM, partner dose 0.4 µM) | 60.8% | 50.4% | 139% | 95.2% | 71.2% | 40.9% | 91.6% | 46.2% | 92.1% | 86% | 74.7% | 69.9% | 69.2% | 56.7% | 42.9% | 57.5% | 83.3% | 47.5% | 47.4% |
| COc1cc([C@@H]2c3cc4c(cc3[C@@H](O[C@@H]3O[C@@H]5CO[C@@H](C)O[C@H]5[C@H](O)[C@H]3O)[C@H]3COC(=O)[C@H]23)OCO4)cc(OC)c1O [etoposide] + C=CCNC1=C2C[C@@H](C)C[C@H](OC)[C@H](O)[C@@H](C)/C=C(\C)[C@H](OC(N)=O)[C@@H](OC)/C=C\C=C(/C)C(=O)NC(=CC1=O)C2=O [Tanespimycin] (first compound 0.02 µM, partner dose 0.002 µM) | 77.7% | 50.3% | 165% | 49.3% | 106% | 78.3% | 95.1% | 97.9% | 118% | 36.5% | 113% | 84.9% | 57.2% | 215% | 78.8% | 28.6% | 108% | 174% | 101% |
| Cc1cn(-c2cc(NC(=O)c3ccc(C)c(Nc4nccc(-c5cccnc5)n4)c3)cc(C(F)(F)F)c2)cn1 [nilotinib] + Cc1cc(Nc2cc(N3CCN(C)CC3)nc(/C=C/c3ccccc3)n2)n[nH]1 [ENMD2076] (first compound 0.2 µM, partner dose 0.04 µM) | 111% | 180% | 145% | 81.3% | 276% | 121% | 106% | 129% | 115% | 96.9% | 82.7% | 95% | 71.4% | 124% | 172% | 84.8% | 185% | 15.4% | 187% |

Nothing new here: entries from further up.

| Structure (SMILES) | cleaved PARP positive nuclei fraction (501Mel) | cleaved PARP positive nuclei fraction (A101D) | cleaved PARP positive nuclei fraction (A2058) | cleaved PARP positive nuclei fraction (A375) | cleaved PARP positive nuclei fraction (C32) | cleaved PARP positive nuclei fraction (CBRC008) | cleaved PARP positive nuclei fraction (CBRC014) | cleaved PARP positive nuclei fraction (CBRC016) | cleaved PARP positive nuclei fraction (CBRC017) | cleaved PARP positive nuclei fraction (CBRC034) | cleaved PARP positive nuclei fraction (COLO792) | cleaved PARP positive nuclei fraction (COLO800) | cleaved PARP positive nuclei fraction (COLO829) | cleaved PARP positive nuclei fraction (G361) | cleaved PARP positive nuclei fraction (IPC-298) | cleaved PARP positive nuclei fraction (IST-MEL1) | cleaved PARP positive nuclei fraction (LB2518-MEL) | cleaved PARP positive nuclei fraction (LOXIMVI) | cleaved PARP positive nuclei fraction (MEL-HO) |
| --- | --- | --- | --- | --- | --- | --- | --- | --- | --- | --- | --- | --- | --- | --- | --- | --- | --- | --- | --- |
| Cc1ccc(Nc2nccc(N(C)c3ccc4c(C)n(C)nc4c3)n2)cc1S(N)(=O)=O [Pazopanib] + C[C@@H](N)c1ccc(C(=O)Nc2ccnc3[nH]ccc23)cc1 [RKI983] (first compound 0.4 µM, partner dose 0.4 µM) | 53.3% | 98.1% | 123% | 108% | 93.5% | 163% | 99.1% | 59.9% | 108% | 60.9% | 92.5% | 41.6% | 137% | 174% | 64.5% | 243% | 46.8% | 243% | 47% |
| N#CC[C@H](C1CCCC1)n1cc(-c2ncnc3[nH]ccc23)cn1 [ruxolitinib] + CS(=O)(=O)CCNCc1ccc(-c2ccc3ncnc(Nc4ccc(OCc5cccc(F)c5)c(Cl)c4)c3c2)o1 [lapatinib] (first compound 1 µM, partner dose 0.8 µM) | 126% | 115% | 102% | 48.5% | 70.8% | 164% | 83.3% | 240% | 76.3% | 67.5% | 113% | 51.1% | 107% | 90.1% | 43.3% | 61.9% | 41.5% | 52.8% | 303% |
